According to paper PMC6881245:
No constants are given. Whether binding was seen depends on the method and setting. Some binding calls cover weakened binding; strength is not graded here.

Chains of the proteins cited; added tags and fusions are not shown. Lines headed by an entry give the natural chain unless they say otherwise; changes in a name come on top. Residues count along the entry.
UniProt P02745: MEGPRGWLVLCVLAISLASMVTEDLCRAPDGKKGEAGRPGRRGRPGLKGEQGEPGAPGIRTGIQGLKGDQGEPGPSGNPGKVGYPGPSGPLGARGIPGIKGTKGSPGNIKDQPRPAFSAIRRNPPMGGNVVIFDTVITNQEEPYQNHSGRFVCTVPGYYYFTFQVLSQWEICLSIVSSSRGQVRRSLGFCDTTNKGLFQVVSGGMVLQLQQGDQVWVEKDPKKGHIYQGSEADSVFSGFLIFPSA
UniProt P04275, residues 764-2813: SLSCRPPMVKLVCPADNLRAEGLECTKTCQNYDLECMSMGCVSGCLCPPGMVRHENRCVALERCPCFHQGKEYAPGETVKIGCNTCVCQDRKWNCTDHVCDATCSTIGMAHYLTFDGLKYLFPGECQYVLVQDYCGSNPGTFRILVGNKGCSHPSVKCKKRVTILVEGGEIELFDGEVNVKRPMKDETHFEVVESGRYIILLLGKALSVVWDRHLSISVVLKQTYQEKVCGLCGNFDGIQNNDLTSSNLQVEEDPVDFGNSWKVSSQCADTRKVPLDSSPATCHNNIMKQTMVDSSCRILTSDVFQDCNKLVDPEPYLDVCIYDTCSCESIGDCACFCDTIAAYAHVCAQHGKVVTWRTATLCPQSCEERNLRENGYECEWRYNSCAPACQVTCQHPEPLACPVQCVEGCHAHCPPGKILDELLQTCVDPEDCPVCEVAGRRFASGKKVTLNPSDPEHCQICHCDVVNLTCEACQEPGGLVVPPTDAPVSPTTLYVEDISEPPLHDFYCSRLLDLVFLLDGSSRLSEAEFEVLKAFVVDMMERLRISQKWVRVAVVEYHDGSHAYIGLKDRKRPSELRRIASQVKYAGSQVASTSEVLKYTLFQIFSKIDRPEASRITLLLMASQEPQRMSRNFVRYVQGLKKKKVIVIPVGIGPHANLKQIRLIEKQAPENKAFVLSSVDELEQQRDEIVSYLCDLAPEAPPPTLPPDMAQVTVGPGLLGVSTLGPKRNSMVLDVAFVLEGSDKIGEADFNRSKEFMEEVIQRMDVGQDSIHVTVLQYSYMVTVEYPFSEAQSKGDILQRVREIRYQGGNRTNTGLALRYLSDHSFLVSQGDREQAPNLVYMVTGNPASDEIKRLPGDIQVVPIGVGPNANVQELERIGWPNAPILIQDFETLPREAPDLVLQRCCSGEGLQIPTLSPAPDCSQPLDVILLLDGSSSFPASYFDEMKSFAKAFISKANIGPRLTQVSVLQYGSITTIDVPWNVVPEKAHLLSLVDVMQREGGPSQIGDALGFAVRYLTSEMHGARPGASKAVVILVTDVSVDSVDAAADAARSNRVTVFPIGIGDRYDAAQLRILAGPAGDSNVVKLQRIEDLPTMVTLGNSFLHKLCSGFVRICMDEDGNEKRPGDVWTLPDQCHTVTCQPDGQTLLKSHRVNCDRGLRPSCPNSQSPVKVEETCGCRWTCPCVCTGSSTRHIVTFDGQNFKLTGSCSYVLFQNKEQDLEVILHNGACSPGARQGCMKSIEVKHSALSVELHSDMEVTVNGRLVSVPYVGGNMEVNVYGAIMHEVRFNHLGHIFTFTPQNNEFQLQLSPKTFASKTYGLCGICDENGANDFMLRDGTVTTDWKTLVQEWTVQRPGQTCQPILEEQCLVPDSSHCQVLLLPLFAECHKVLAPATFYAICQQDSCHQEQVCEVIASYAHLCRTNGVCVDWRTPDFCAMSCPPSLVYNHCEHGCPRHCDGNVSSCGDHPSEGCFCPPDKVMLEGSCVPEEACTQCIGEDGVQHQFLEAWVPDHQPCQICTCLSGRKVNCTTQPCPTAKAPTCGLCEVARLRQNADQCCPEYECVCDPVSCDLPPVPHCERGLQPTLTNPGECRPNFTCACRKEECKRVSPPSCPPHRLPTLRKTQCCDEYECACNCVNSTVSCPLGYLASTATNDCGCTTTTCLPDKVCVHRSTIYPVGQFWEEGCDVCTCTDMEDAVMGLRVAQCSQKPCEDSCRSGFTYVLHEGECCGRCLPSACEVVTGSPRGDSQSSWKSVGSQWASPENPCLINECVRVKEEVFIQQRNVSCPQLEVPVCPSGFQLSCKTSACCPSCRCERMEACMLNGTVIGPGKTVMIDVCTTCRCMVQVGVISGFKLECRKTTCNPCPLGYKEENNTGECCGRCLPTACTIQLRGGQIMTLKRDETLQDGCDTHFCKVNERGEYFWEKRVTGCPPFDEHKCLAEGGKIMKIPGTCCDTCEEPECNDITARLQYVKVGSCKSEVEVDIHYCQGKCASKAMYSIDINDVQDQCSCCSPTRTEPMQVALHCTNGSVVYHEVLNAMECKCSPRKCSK

Assays:
Complement C1q [1] = target: Complement C1q (UniProt P02745); assay: confocal microscopy of stained cholesterol crystals; CC-C1q-vWF complexes made as for flow cytometry, stained for C1q and vWF, spun onto cytoslides; Nikon A1R; both purified
Complement C1q [2] = target: Complement C1q (UniProt P02745); assay: imaging flow cytometry of stained cholesterol crystals; CC-C1q-vWF complexes made as for flow cytometry, stained for C1q and vWF; ImageStreamX Mark II; both purified

von Willebrand factor (from UniProt P04275 764-2813)
binding (Complement C1q [1]): binds
binding (Complement C1q [2]): binds
